Literature values, collected in patent publication US8716228B2, “GPR54 agonists or antagonists for treatment of diseases presenting behavioral abnormalities” (YEDA Research and Development Co. Ltd., priority 2009, dated 2014).
At least one compound was matched to its structure with a doubt left.

Test system: poly I:C rat model for schizophrenia
Conditions: prophylactic treatment in peri-adolescence; cited from earlier work

Structure (SMILES): CN1CCN(C2=Nc3cc(Cl)ccc3Nc3ccccc32)CC1 [clozapine]
- onset of psychotic symptoms and abnormal brain development: prevented the onset psychotic symptoms and abnormal brain development
